Experimental data from publication PMC10163288.
The list shows a part of the results.

B1: il2ra_site2_2erj_sap_19_mot_HHH_b2_06912_000000039_0001_38_52_H_._HHH_b1_00662_af2_0001_0000900011_0000001_0_0001 (protein)
chain: SSSSDVEEEVERLLEEAKEAYKEGDLHEVYRLVVEALHLASKNQDPELLKLVAKVFEELQSSSSS
B2: il2ra_site2_2erj_normal_mot_HHH_b1_02757_000000121_0001_41_57_H_._HHH_b2_06164_0001_0000400025_0000001_0_af2pred_0001_1_af2pred_swapped (protein)
chain: SSSSSSDAEERLRELLEEARHIKDPREALKVLQEAAEIASEYHDPELLELVLEAAREQSSSSSSS
B3: il2ra_site1_2b5i_normal_mot_2cbe48e66a1f39b3fed734b245ab0a04_0001_000000015_0001_17_31_H_._HHH_b2_07141_0001_0000300013_0000001_0_af2pred_dldesign_0_af2pred (protein)
chain: SSSSSDPEEVRRRVEELLERARELPDIAEAERVLYEALFVARKGRDEELIARVEEEYKRLSSSSS
B4: il2ra_site2_3nfp_sap_27_mot_HHH_b1_02173_000000190_0001_1_18_H_._HHH_b1_03048_0001_0000200006_0000001_0_0001 (protein)
chain: SSSSSEEREFRRAVESALRFAKRTPDEELRRSALEWARAAALMLGDPELERLVEEVAEELSSSSS
B5: il2ra_site2_2erj_normal_mot_HHH_b2_00484_af2_000000139_0001_42_55_H_._HHH_b2_04766_af2_0001_0000300006_0000001_0 (protein)
chain: SSSSSKEAWELAARASIEALELYKRGNPEEAERLLEEALEEVEKLGDEIAARYLEHARRHLSSSS
B6: il2ra_site1_2b5i_normal_mot_f5ff40796168375b462bec8614a1db4a_0001_1_000000138_0001_53_65_H_._HHH_b2_03702_0001_0000200025_0000001_0_af2pred_dldesign_0_af2pred (protein)
chain: SSSSSSDTRELIDELLAEAARLEDERLRKKLLLLARDIARKAGDEERVAELERLLAELESSSSSS
B7: il2ra_site1_2b5i_sap_9_mot_HHH_b1_06258_af2_000000112_0001_42_56_H_._HHH_b1_08418_af2_0001_0000200024_0000001_0_0001_af2pred_0001_af2pred_1 (protein)
chain: TERRRIIELLDEAAKHVPPEVFELLLRVLRLLARGDPEEARKLLEEAIELVGDPLLKEALELLEK
B8: il2ra_site1_2b5i_normal_mot_0e5a94e4a5addaac739760efb25f0f5d_0001_000000289_0001_18_32_H_._39ed66e5fba071e4f274ea7f2cf018e6_0001_af2_0001_0000400019_0000001_0_a … (protein)
chain: SPALDALYDAAQAAGDKKLMKLTIKARYLQEIGAAPEEIKAWLRRYAERHGVPEEHLEAVAEALE
B9: il2ra_site1_2b5i_normal_mot_0e5a94e4a5addaac739760efb25f0f5d_0001_000000208_0001_18_32_H_._HHH_b2_05387_af2_0001_0000100003_0000001_0_af2pred_dldesign_0_af2pred (protein)
chain: SSSSDVEKAKKLLEEAKAALEAGRPEEARRLLEEAAKIALDSDDVELKTEIVKLLHRVRLSSSSS
B10: il2ra_site2_3nfp_sap_21_mot_HHH_b1_04032_000000208_0001_43_56_H_._HHH_b2_02520_af2_0001_0000400008_0000001_0_0001_af2pred_0001_af2pred (protein)
chain: SSSSSEEVEELIERVEELLKKGDVEEAHRVLKEAAKLAREAGDEELFLELLLLLRLVRRLESSSS
B11: il2ra_site2_2erj_normal_mot_HHH_b2_08364_000000146_0001_1_19_H_._HEEHE_1265_af2_0001_0000100004_0000001_1_af2pred_0001_af2pred (protein)
chain: DDKLLVEVAIEAVARKAGIPSIEVEVSNGTIEVTIDGNDEAARYVELAARFVAEQLGLEVEVEVE
B12: il2ra_site1_2b5i_sap_25_mot_e46e631880b6e8cfa39cf89b6d9ac203_0001_1_000000162_0001_19_34_H_._3abea1aeba1101aad97199a57a9882c4_0001_af2_0001_0000100002_0000001_0 … (protein)
chain: SSSSEEKYDEIDRLFNEALKLKQAGKKEEAKEKLEKALELAKEMGSEKIIKELEYFLELVSSSSS
B13: il2ra_site2_2erj_normal_mot_af86707857d369f3e1d85dcabc5f9321_0001_000000201_0001_14_29_H_._HHH_b2_03838_af2_0001_0000100002_0000001_0 (protein)
chain: SSSSSSSEEEEAKELTEEAKEIEDPDEALEVLSEAFVLAYRVGDHRLAAEVIELAHRLLSSSSSS
B14: il2ra_site2_3nfp_sap_27_mot_HHH_b1_00497_000000019_0001_1_17_H_._HHH_b1_02145_af2_0001_0000500022_0000001_0_0001 (protein)
chain: SSSSDKFEEYVEAALLLARRAEEDGDPEAAERMLEIALAAAEDIGNEELFEEIERLLRELRSSSS
B15: il2ra_site2_3nfp_normal_mot_HHH_b2_05281_000000198_0001_39_56_H_._HHH_b1_07030_0001_0000100012_0000001_0 (protein)
chain: SSSSDEEEERIEELLREAKELLEEGNPEEAQRVLAEATHLIFKINNSRLFFELAELALEVHSSSS
B16: il2ra_site1_1z92_sap_8_mot_add8a691351788dd45ba4deda1838316_0001_1_000000225_0001_37_51_H_._a445c54e3280ddb545be3b99cff61ffd_0001_1_af2_0001_0000300042_0000001_ … (protein)
chain: SSSSTEDKREALELFQEANELIKEGNEEEAEELLERALRLAEEAGSRVVARSIEFALEDLESSSS
B17: il2ra_site2_3nfp_sap_21_mot_HHH_b1_06238_000000047_0001_1_16_H_._51496fa1c8d31d9133bff2649adae953_0001_0001_0000300019_0000001_0_0001_af2pred_0001_af2pred (protein)
chain: SSSSDREEEIVRRIVEELGLSEEVEKRLKRQAELALEAGFSEEEVEAALRAWALAWLEHLSSSSS
B18: il2ra_site2_2erj_normal_mot_HHH_b2_06912_000000039_0001_38_52_H_._HHH_b2_01292_0001_0000100004_0000001_0 (protein)
chain: SSSSSDKEESEKLAEEAHELILRNPERVEEIVEEFRRELEELNDPIAVRYLELVRRDVNSSSSSS
B19: il2ra_site1_2b5i_sap_9_mot_HHH_b1_06312_000000036_0001_42_56_H_._HHH_b2_08220_0001_0000100002_0000001_0_0001_af2pred_0001_af2pred (protein)
chain: SSSSDEQERINELFLEASRLALRGNPEEARELLEEALKLAEEAGDPRAREDVEKMLEALNSSSSS

Each binder was assayed against il2ra, P01589 (assay: yeast display titration).

Apparent Kd, inactive:
B1 no binding seen
B2 no binding seen
B3 no binding seen
B4 no binding seen
B5 no binding seen
B6 no binding seen
B7 no binding seen
B8 no binding seen
B9 no binding seen
B10 no binding seen
B11 no binding seen
B12 no binding seen
B13 no binding seen
B14 no binding seen
B15 no binding seen
B16 no binding seen
B17 no binding seen
B18 no binding seen
B19 no binding seen

Fetched one by one from the entries so far, two records:
Apparent Kd, inactive:
B7 no binding seen
B1 no binding seen
